In paper PMC4223510 one finds binding data, which are given here for one molecule.

Results are given in words; binding and its absence hold for the method and conditions named. Binding seen in cells or lysates may run through a third protein. Here binding means that the protein was enriched with, or labelled near, the bait; the list need not be complete.

This test concerns the target TAP-tagged HIV-1 NL4-3 Pol (TAP-Pol) (HIV-1 strain NL4-3). The test is described as follows: affinity purification with mass spectrometry; tandem affinity purification of TAP-Pol from lysate of stably transfected 293T cells (IgG beads, TEV release, calmodulin beads, EGTA elution); bands of a 10% SDS-PAGE gel identified by LC/MS; a cell line with the TAP tag only as control.

B1: A-kinase anchoring protein 95-like protein (HAP95), endogenous (protein, UniProt Q9ULX6 1-646)
chain: MSYTGFVQGSETTLQSTYSDTSAQPTCDYGYGTWNSGTNRGYEGYGYGYGYGQDNTTNYGYGMATSHSWEMPSSDTNANTSASGSASADSVLSRINQRLDMVPHLETDMMQGGVYGSGGERYDSYESCDSRAVLSERDLYRSGYDYSELDPEMEMAYEGQYDAYRDQFRMRGNDTFGPRAQGWARDARSGRPMASGYGRMWEDPMGARGQCMSGASRLPSLFSQNIIPEYGMFQGMRGGGAFPGGSRFGFGFGNGMKQMRRTWKTWTTADFRTKKKKRKQGGSPDEPDSKATRTDCSDNSDSDNDEGTEGEATEGLEGTEAVEKGSRVDGEDEEGKEDGREEGKEDPEKGALTTQDENGQTKRKLQAGKKSQDKQKKRQRDRMVERIQFVCSLCKYRTFYEDEMASHLDSKFHKEHFKYVGTKLPKQTADFLQEYVTNKTKKTEELRKTVEDLDGLIQQIYRDQDLTQEIAMEHFVKKVEAAHCAACDLFIPMQFGIIQKHLKTMDHNRNRRLMMEQSKKSSLMVARSILNNKLISKKLERYLKGENPFTDSPEEEKEQEEAEGGALDEGAQGEAAGISEGAEGVPAQPPVPPEPAPGAVSPPPPPPPEEEEEGAVPLLGGALQRQIRGIPGLDVEDDEEGGGGAP
Regarding B1, the binding result was “binds”.
